Assay results from the supplement of paper PMC3334620.
Whole data set: some 33,000 sequences, median “E-score (-0.5 to 0.5)” near -0.0034, cut for the highest 2% near 0.25. The list shows a part of the results.

The sequences below were run against T1, Yap3 (UniProt P38749) (assay: PBM E-score (8-mer binding enrichment) (E-score (-0.5 to 0.5)); higher = stronger / more preferred TF binding). Settings: protein concentration: 100 nM; construct: GST-full length.
T1 sequence: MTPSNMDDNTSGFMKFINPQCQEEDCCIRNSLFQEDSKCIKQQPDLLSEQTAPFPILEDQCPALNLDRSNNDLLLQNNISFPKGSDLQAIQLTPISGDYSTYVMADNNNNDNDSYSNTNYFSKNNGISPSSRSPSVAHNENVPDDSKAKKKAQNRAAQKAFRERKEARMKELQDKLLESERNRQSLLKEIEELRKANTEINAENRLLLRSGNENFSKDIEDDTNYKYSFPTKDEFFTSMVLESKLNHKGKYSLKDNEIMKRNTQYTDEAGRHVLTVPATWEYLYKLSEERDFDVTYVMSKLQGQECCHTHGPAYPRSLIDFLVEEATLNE
Outline: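 Bound GST-tagged yeast transcription factors, applied at about 100-200 nM to double-stranded universal all-10-mer Agilent arrays, were detected with fluorescent anti-GST. Scans were normalised with masliner. A modified Wilcoxon-Mann-Whitney statistic, the E-score, was assigned to each ungapped eight-base word pooled with its reverse complement by the Universal PBM Analysis Suite.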
For CGGTAGCA, the “PBM E-score” value was 0.0393.
With AGGGCCGA the “PBM E-score” value was 0.0323.
AAGCATGC was tested, and the “PBM E-score” value was -0.0967.
AGCTGTGC was tested, and the “PBM E-score” value was -0.186.
With GAAAAGAA the “PBM E-score” value was 0.0727.
For CAGGATGC, the “PBM E-score” value was 0.0104.
With GCATATGC the “PBM E-score” value was 0.0435.
In the case of ACGCCGGC, the “PBM E-score” value is reported as -0.0534.
In the case of AGCAAGAG, the “PBM E-score” value is reported as -0.0511.
For GAGGATAA, the “PBM E-score” value was -0.0446.
For ACTGAACA, the “PBM E-score” value was 0.212.
With AGGGCTGA the “PBM E-score” value was -0.111.
In the case of TACACATA, the “PBM E-score” value is reported as 0.168.
With AGGTAGCG the “PBM E-score” value was -0.0604.
With ATGGACAC the “PBM E-score” value was 0.0777.
In the case of CTGCTTTC, the “PBM E-score” value is reported as 0.0811.
In the case of AAGTAAAT, the “PBM E-score” value is reported as 0.26.
In the case of CCATACTA, the “PBM E-score” value is reported as 0.154.
With CTCGTACC the “PBM E-score” value was -0.0269.
With ATTTGATA the “PBM E-score” value was 0.273.
For AGCATACT, the “PBM E-score” value was -0.0413.
AGATCTAG was tested, and the “PBM E-score” value was -0.119.
ACAACCTG was tested, and the “PBM E-score” value was 0.0569.
For ATAGATAT, the “PBM E-score” value was 0.189.
ATACACCA was tested, and the “PBM E-score” value was 0.102.
AGTGGGAG was tested, and the “PBM E-score” value was -0.0546.
In the case of AGTGTCGC, the “PBM E-score” value is reported as 0.0704.
With GCCTCGAC the “PBM E-score” value was -0.0873.
ACGTAAGG was tested, and the “PBM E-score” value was 0.137.
With GTATTTAA the “PBM E-score” value was 0.194.
With ATTTTCCC the “PBM E-score” value was 0.0787.
With CGACTAAG the “PBM E-score” value was -0.162.
With GGCACACC the “PBM E-score” value was -0.278.
For TCTGCAGA, the “PBM E-score” value was 0.0937.
TCTACGAA was tested, and the “PBM E-score” value was -0.155.
With ACACGTAT the “PBM E-score” value was 0.0936.
CAGAACGG was tested, and the “PBM E-score” value was -0.0958.
CCCTAGAA was tested, and the “PBM E-score” value was 0.0308.
In the case of CGTCCCGA, the “PBM E-score” value is reported as -0.194.
For ATTTTGAC, the “PBM E-score” value was 0.194.
With GCCCAGCC the “PBM E-score” value was -0.17.
For AAAACGGT, the “PBM E-score” value was 0.0105.
CTACCGAC was tested, and the “PBM E-score” value was -0.00826.
AAACAAAT was tested, and the “PBM E-score” value was 0.193.
GCAAAACC was tested, and the “PBM E-score” value was -0.0668.
In the case of CTGAAACC, the “PBM E-score” value is reported as 0.0376.
In the case of CAATTACG, the “PBM E-score” value is reported as 0.208.
For AATCACAG, the “PBM E-score” value was 0.058.
GACTATAA was tested, and the “PBM E-score” value was 0.0998.
With ACTGATCC the “PBM E-score” value was 0.0385.
In the case of AACCACCC, the “PBM E-score” value is reported as -0.162.
GGTTGCAA was tested, and the “PBM E-score” value was 0.105.
CCCGAACA was tested, and the “PBM E-score” value was 0.101.
In the case of AGAATGTA, the “PBM E-score” value is reported as -0.0044.
In the case of ATGCTGGC, the “PBM E-score” value is reported as 0.0131.
ACGATCAC was tested, and the “PBM E-score” value was -0.0669.
CGAAATTC was tested, and the “PBM E-score” value was 0.0365.
With AAGTACCT the “PBM E-score” value was -0.185.
TACGCGGA was tested, and the “PBM E-score” value was -0.0209.
ACGCCGCG was tested, and the “PBM E-score” value was -0.0869.
For AATAGCCC, the “PBM E-score” value was -0.104.
For ATTGGTTA, the “PBM E-score” value was 0.162.
CGGAAATA was tested, and the “PBM E-score” value was 0.289.
With AACTGCTT the “PBM E-score” value was -0.131.
With GACGCGAA the “PBM E-score” value was -0.0406.
AAAAGAAT was tested, and the “PBM E-score” value was 0.208.
AGATCCGG was tested, and the “PBM E-score” value was -0.183.
With CCATGTTC the “PBM E-score” value was 0.0121.
ACGATAGA was tested, and the “PBM E-score” value was -0.024.
In the case of ACGCACGT, the “PBM E-score” value is reported as -0.206.
For CCTTTATA, the “PBM E-score” value was 0.0052.
For CCCCGTGC, the “PBM E-score” value was -0.124.
For ACATAACG, the “PBM E-score” value was 0.135.
For AGAAGATG, the “PBM E-score” value was -0.0173.
For ACAGGTAT, the “PBM E-score” value was 0.152.
With ACCACTCC the “PBM E-score” value was -0.14.
For CTACAGTC, the “PBM E-score” value was -0.144.
In the case of GTGCGAAC, the “PBM E-score” value is reported as -0.162.
For AGCCTTTA, the “PBM E-score” value was 0.0345.
For ATCGCGGA, the “PBM E-score” value was -0.0771.
In the case of TACGACAA, the “PBM E-score” value is reported as 0.182.
In the case of CGCGTACC, the “PBM E-score” value is reported as -0.196.
For CATCACCA, the “PBM E-score” value was 0.131.
In the case of AAGGGGAG, the “PBM E-score” value is reported as -0.362.
In the case of CGGGTAGA, the “PBM E-score” value is reported as 0.0108.
With ATTTGCGA the “PBM E-score” value was 0.182.
For CCTCCACG, the “PBM E-score” value was -0.149.
For CCCGCCGC, the “PBM E-score” value was -0.0464.
For TGAAAGAA, the “PBM E-score” value was 0.297.
For GTTTGACA, the “PBM E-score” value was 0.0805.
For CTGCAGTA, the “PBM E-score” value was -0.144.
For TCTAAAAA, the “PBM E-score” value was -0.0367.
With ACCTTTTC the “PBM E-score” value was -0.0024.
In the case of CGTCAACC, the “PBM E-score” value is reported as -0.0459.
GATATTTA was tested, and the “PBM E-score” value was 0.149.
In the case of TAGTTGCA, the “PBM E-score” value is reported as -0.0088.
With ACGCTGGA the “PBM E-score” value was -0.0371.
With CTGTTATC the “PBM E-score” value was 0.164.
With CCACGACA the “PBM E-score” value was -0.0716.
With CAGGGAGG the “PBM E-score” value was -0.345.
For GGAGAATA, the “PBM E-score” value was 0.136.
For GCCGCAGC, the “PBM E-score” value was -0.24.
For ACCTCATG, the “PBM E-score” value was -0.289.
GTGTCCAA was tested, and the “PBM E-score” value was 0.111.
In the case of GTAATTAC, the “PBM E-score” value is reported as 0.306.
In the case of ACCGTAGC, the “PBM E-score” value is reported as -0.0405.
CGTGCGGC was tested, and the “PBM E-score” value was -0.0562.
For CAGAAGCG, the “PBM E-score” value was 0.0947.
In the case of GTTTTAAA, the “PBM E-score” value is reported as 0.235.
GCGGGTGA was tested, and the “PBM E-score” value was -0.0914.
For AGTATCAA, the “PBM E-score” value was 0.159.
For CCGCTTCG, the “PBM E-score” value was -0.169.
CGGTTGGA was tested, and the “PBM E-score” value was 0.0109.
AACAAGCA was tested, and the “PBM E-score” value was 0.0699.
CCGGCGCG was tested, and the “PBM E-score” value was -0.133.
For ATCATCAG, the “PBM E-score” value was 0.113.
TATGTAAA was tested, and the “PBM E-score” value was 0.262.
With TTTACAAA the “PBM E-score” value was 0.262.
In the case of ATTGAAAT, the “PBM E-score” value is reported as 0.263.
AGATGGTG was tested, and the “PBM E-score” value was -0.132.
For ATTGCAGG, the “PBM E-score” value was 0.073.
With GAGACAGA the “PBM E-score” value was 0.0683.
In the case of ATTCGGTC, the “PBM E-score” value is reported as 0.0853.
With AAACGTCA the “PBM E-score” value was -0.104.
In the case of CCACTACG, the “PBM E-score” value is reported as 0.0351.
With GGTGGGCA the “PBM E-score” value was 0.0503.
In the case of ACCGCGCA, the “PBM E-score” value is reported as 0.031.
With GTTGGCCA the “PBM E-score” value was -0.173.
GAACGAGA was tested, and the “PBM E-score” value was 0.104.
In the case of ACGGACGC, the “PBM E-score” value is reported as -0.114.
In the case of CAACGCGA, the “PBM E-score” value is reported as 0.102.
In the case of TAAATTAA, the “PBM E-score” value is reported as 0.234.
With ACGACAAC the “PBM E-score” value was 0.197.
ATGTGAAC was tested, and the “PBM E-score” value was 0.0896.
For AGCGCTTA, the “PBM E-score” value was 0.0641.
In the case of ATATTAAT, the “PBM E-score” value is reported as 0.351.
GGCGCTTA was tested, and the “PBM E-score” value was -0.239.
With ATCTAGCA the “PBM E-score” value was 0.115.
In the case of ATTGCACC, the “PBM E-score” value is reported as 0.0372.
With CCTTGATA the “PBM E-score” value was 0.12.
With ACGATAAA the “PBM E-score” value was 0.0463.
For ACGTCCCT, the “PBM E-score” value was -0.0631.
ATATCTGC was tested, and the “PBM E-score” value was -0.0964.
ACTGCCCG was tested, and the “PBM E-score” value was 0.0277.
TAGGCCCA was tested, and the “PBM E-score” value was -0.198.
For CTCAAACA, the “PBM E-score” value was 0.203.
In the case of AAAGTAGG, the “PBM E-score” value is reported as 0.231.
For AGAGGCTG, the “PBM E-score” value was -0.306.
With ACATGTAA the “PBM E-score” value was 0.184.
For GCCTTGGA, the “PBM E-score” value was -0.115.
For AACTCTCT, the “PBM E-score” value was 0.057.
In the case of GTTGACTA, the “PBM E-score” value is reported as 0.0363.
For CTAAAGAA, the “PBM E-score” value was 0.0205.
With ACCGCGGG the “PBM E-score” value was 0.0395.
AACCACCA was tested, and the “PBM E-score” value was 0.0808.
AACGCTTC was tested, and the “PBM E-score” value was -0.0152.
For ACATACTA, the “PBM E-score” value was 0.212.
With CTCTAGAC the “PBM E-score” value was -0.185.
With ATGAAAAG the “PBM E-score” value was 0.122.
With AGCCGCAT the “PBM E-score” value was 0.025.
ACTGCTTA was tested, and the “PBM E-score” value was 0.00361.
In the case of CACCATTA, the “PBM E-score” value is reported as 0.159.
In the case of ACCACAGA, the “PBM E-score” value is reported as -0.0994.
In the case of AAATCGTC, the “PBM E-score” value is reported as 0.0202.
AGAGCCAG was tested, and the “PBM E-score” value was -0.175.
With CATCTCGG the “PBM E-score” value was 0.00528.
With ATATGACG the “PBM E-score” value was 0.134.
For AAGTGGCA, the “PBM E-score” value was 0.0555.
In the case of GATGCCCC, the “PBM E-score” value is reported as -0.238.
In the case of AGCCCCGC, the “PBM E-score” value is reported as -0.145.
With CGCTAATA the “PBM E-score” value was 0.0177.
GTTAAACA was tested, and the “PBM E-score” value was 0.144.
